Reference: PubChem BioAssay AID1259254 (NCATS, 2017)

Test: 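Genome-wide screen for genes that prevent DNA re-replication in cancer cells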 (primary screen)
Cell system: human HCT116 colorectal cancer cells
Reagent: single siRNA against human genes
Time to read-out: 3 days
Measurement: 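Imaged Hoechst DNA stain sorts each cell into a cycle phase by DNA amount; per plate, G2 fraction set to 0% for non-targeting and 100% for GMNN siRNA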
Reading the numbers: G2 robust z-score and G2 cells, % of GMNN control: higher = more G2 cells, more excess DNA replication; raw share of cells in G2: higher = larger share of cells with G2 DNA content
Active means: 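Active siRNAs have a G2 robust z of 5 or more median absolute deviations over the median, which in these data means about 38% or higher of GMNN control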
This is an unselected part of about 59,000 deposited reagents. In the full data, about 1,550 (2.6%) are marked active. 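G2 share is only a proxy for re-replication; each gene was hit by three separate siRNAs, and active genes were retested.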 Raw values vary from plate to plate and are shown uncorrected. Unmarked entries are inactive. Reagents against one gene are numbered here. Not given: the amount of reagent.

| Target gene | siRNA no. | G2 robust z-score | G2 cells, % of GMNN control | raw share of cells in G2 (%) |
| --- | --- | --- | --- | --- |
| SERPINA4 | 1 | -0.189 | 1.63 | 5.33 |
| SERPINA4 | 2 | -1.06 | -4.49 | 2.95 |
| SERPINA4 | 3 | 1.12 | 10.8 | 6.75 |
| CD99L2 | 1 | -0.84 | -2.94 | 3.13 |
| CD99L2 | 2 | -0.99 | -4 | 2.27 |
| CD99L2 | 3 | 0.16 | 4.1 | 3.65 |
| ANKRD39 | 1 | -0.381 | 0.286 | 3.96 |
| ANKRD39 | 2 | -0.99 | -4 | 3.04 |
| ANKRD39 | 3 | 2.13 | 18 | 8.91 |
| RMI2 | 1 | 2.47 | 20.3 | 12.2 |
| RMI2 | 2 | -0.863 | -3.1 | 2.4 |
| RMI2 | 3 | -0.123 | 2.1 | 2.43 |
| PRAMEF2 | 1 | 0.2 | 4.37 | 6.48 |
| PRAMEF2 | 2 | -0.885 | -3.26 | 3.15 |
| PRAMEF2 | 3 | -1.24 | -5.76 | 1.18 |
| ACADL | 1 | 0.137 | 3.93 | 5.46 |
| ACADL | 2 | 0.51 | 6.56 | 7.41 |
| ACADL | 3 | -1.03 | -4.27 | 3.27 |

The list goes on, starting with the last 2 of the part before.
| Target gene | siRNA no. | G2 robust z-score | G2 cells, % of GMNN control | raw share of cells in G2 (%) |
| --- | --- | --- | --- | --- |
| ACADL | 2 | 0.51 | 6.56 | 7.41 |
| ACADL | 3 | -1.03 | -4.27 | 3.27 |
| RNASET2 | 1 | -0.0498 | 2.62 | 5.64 |
| RNASET2 | 2 | -1.42 | -7.01 | 2.8 |
| RNASET2 | 3 | -0.156 | 1.87 | 5.39 |
| CACNG2 | 1 | 1.83 | 15.8 | 11 |
| CACNG2 | 2 | 1.5 | 13.5 | 9.35 |
| CACNG2 | 3 | -0.744 | -2.27 | 3.49 |
| AGAP4 | 1 | -0.434 | -0.0835 | 4.45 |
| AGAP4 | 2 | -0.846 | -2.98 | 3.69 |
| AGAP4 | 3 | -0.434 | -0.086 | 5.63 |
| KLF17 | 1 | 2.69 | 21.9 | 10.6 |
| KLF17 | 2 | 0.762 | 8.33 | 6.06 |
| KLF17 | 3 | -0.267 | 1.09 | 3.91 |
